Article PMC10533516, “The Dictyostelium discoideum FimA protein, unlike yeast and plant fimbrins, is regulated by calcium similar to mammalian plastins” (Scientific Reports, 2023)
These are yes or no findings as the source states them, for the method shown.

Biological target: T1, FimA-EF-N81ter (EF-hand domain of the Dictyostelium discoideum FimA headpiece, residues 1-80, lacking the H5 region) (Dictyostelium discoideum) (UniProt P54680)
T1 sequence: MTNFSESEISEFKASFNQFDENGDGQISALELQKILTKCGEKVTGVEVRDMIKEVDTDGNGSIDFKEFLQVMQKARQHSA
Test: NMR titration; H5 peptide titrated into FimA-EF-N81ter in the presence of the calmodulin antagonists W7 or TFP, 1H,15N-HSQC; 25 °C, 100 mM KCl, 20 mM Bis-Tris pH 7.0; both purified

SANASPAFASAVKK (N-terminal acetyl (Ac-); C-terminal amide (-NH2))
binding: no binding (condition: in the presence of W7 or TFP)
